Earlier results as cited in PMC9538324 (Journal of medical virology, 2022).

Test system: SARS-CoV-2
Conditions: Vero E6 cells, RNA readout, depending upon the MOI used; cited from earlier work

Question: With Cc1ccc(NC(=O)c2ccc(CN3CCN(C)CC3)cc2)cc1Nc1nccc(-c2cccnc2)n1 [Imatinib, imatinib] as the compound, how does the EC50 read?
Answer: 3 to 10 µM
